# From PubChem BioAssay AID1347076 (National Center for Advancing Translational Sciences (NCATS), 2019)
# The campaign covered roughly 400,000 compounds. About 13,000 (3.2%) were called active. The inconclusive results got no clear call from the source; some entries with a clear call stand among them for comparison. The call rests on the fitted dose curve; in most records, active means well fitted cell-killing curve with a large enough effect; inconclusive means small, poorly fitted or top-dose-only effect, or effect the other way; inactive means flat fitted curve, though single readings scatter. Where the call is inconclusive, the potency comes from a doubtful curve fit.
# Experiment: qHTS assay for MDR1-selective chemotherapeutics: Primary screen using the drug-selected MDR subline cells KB-V1; further: nearly all actives have a fitted effect of over 60% in size
# Conditions: KB-V1 MDR cells viability, CellTiter-Glo, 72 h; activity change, negative = cytotoxicity: at 46.1 µM (top of the series)
# How it was run: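 qHTS viability screen in drug-selected KB-V1 MDR cells: 72 h compound treatment at 37 degrees C, ATP luminescence end point.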
# On the % scale 0 is the no-effect control and ±100 the full control effect; potency means the concentration at half of the fitted maximal effect.
Compound,Potency,"activity change, negative = cytotoxicity"
C/C(=N\NC(=O)CNc1cccc(C(F)(F)F)c1)c1cccs1,"inconclusive: 29.1 µM [rising, single point]",–
O=C(NCc1ccccc1)c1ccc(CSc2nc3cccnc3n2Cc2cccc(F)c2)cc1,"inconclusive: 5.8 µM [cytotoxic, single point]",–
O=C(O)CN1C(=O)CNC1=O,–,inactive: 0%
Cc1ccc(C(=O)c2cnc3cc4c(cc3c2S(=O)(=O)c2ccccc2)OCCO4)cc1,active: 16.4 µM,–
COc1ccc(CNC(=O)CSc2nnc(NC(=O)c3ccccc3F)s2)cc1,–,inactive: -29.2%
COc1ccc(CN(C)C(C)C(=O)Nc2ccc([N+](=O)[O-])cc2Cl)cc1OC (stereo not drawn),active: 5.17 µM,–
CCCN(CCC)c1ncnc2nc[nH]c12,–,inactive: 6.45%
O=C1CC(c2ccccc2)CC(=NCCO)/C1=C(\O)CCCN1C(=O)c2ccccc2C1=O (stereo not drawn),"inconclusive: 25.9 µM [cytotoxic, single point]",–
CN(C)c1nc(OCCNC(=O)COc2ccccc2Cl)nc(N(C)C)n1,active: 1.64 µM,–
CCOC(=O)c1sc(NC(=O)c2ccc(S(=O)(=O)N3CCOCC3)cc2)nc1-c1ccccc1,–,inactive: -12%
COc1cc(OC)c(C(=O)OC(C)C(=O)Nc2cc(C(F)(F)F)ccc2Cl)cc1OC (stereo not drawn),"inconclusive: 3.26 µM [cytotoxic, partial curve, poor fit]",–
COc1cc2nc(C3CCC3)nc(N3CCN(c4ccccn4)CC3)c2cc1OC,"inconclusive: 23.1 µM [cytotoxic, partial curve, poor fit]",–
COc1cc2nc(C3CC3)n(NC(=O)c3ccc(F)cc3)c(=O)c2cc1OC,"inconclusive: 16.4 µM [cytotoxic, single point]",–
O=C(Nc1ccc(S(=O)(=O)Nc2ncccn2)cc1)c1ccc2ncsc2c1,"inconclusive: 29.1 µM [rising, single point]",–
Cc1ccc(S(=O)(=O)N(CC(=O)N2CCN(c3ccc(F)cc3)CC2)C2CCCCC2)cc1,"inconclusive: 29.1 µM [cytotoxic, single point]",–
CC(C)CNS(=O)(=O)c1ccc(CCC(=O)NCc2ccncc2)cc1,"inconclusive: 29.1 µM [cytotoxic, single point]",–
O=C(NCc1cccs1)c1nc2c(nnn2Cc2ccc(F)cc2)c(=O)[nH]1,active: 23.1 µM,–
O=C(Nc1ccccc1)Nc1ccc(C(=O)N2CCCC2)cc1,"inconclusive: 25.9 µM [cytotoxic, partial curve, poor fit]",–
COc1ccc(Nc2cccccc2=O)cc1,–,inactive: 6.99%
O=C1CCCc2c1[nH]c1ccc(Cl)cc21,"inconclusive: 1.46 µM [cytotoxic, partial curve, poor fit]",–
CCOCC(=O)Nc1cc(S(=O)(=O)N2CCOCC2)ccc1N1CCCCC1,–,inactive: -28.2%
O=c1ccnc(SCCc2ccccc2)[nH]1,"inconclusive: 29.1 µM [cytotoxic, single point]",–
CC(=O)O[C@H]1[C@@H](O)[C@H](O)[C@H](Oc2c(O)c(C)c3c4c2[C@@H](C)CC[C@@H]4[C@@H](C)C[C@H]3C=C(C)C)O[C@H]1C,active: 25.9 µM,–

Compound,Potency,"activity change, negative = cytotoxicity"
CCOC(=O)[C@]12CCCC=C1N(CCC1=CCCCC1)C(=O)[C@H](CC(=O)N1CCC(c3ccccc3)CC1)C2,"inconclusive: 4.11 µM [cytotoxic, partial curve, poor fit]",–
c1ccc(Cc2nn3c(Cn4cnc5ccccc54)nnc3s2)cc1,"inconclusive: 23.1 µM [cytotoxic, single point]",–
Cc1csc(NC(=O)CSc2nc(C(C)C)nc3c2c(=O)n(C)c(=O)n3C)n1,–,inactive: 6.39%
COc1ccc2oc3cc(C)[n+]([O-])c(-c4ccc(Br)cc4)c3c2c1,active: 2.91 µM,–
O=C(C(=O)c1ccc(O)c(O)c1)c1ccc(O)c(O)c1,"inconclusive: 25.9 µM [cytotoxic, single point]",–
COC(=O)c1cccc(Nc2cc(C)nc(-c3ccccc3O)n2)c1,"inconclusive: 7.31 µM [cytotoxic, partial curve]",–
O=[N+]([O-])c1ccc2c(c1)nc1n2CCN(C2CCCCC2)C1,"inconclusive: 29.1 µM [cytotoxic, single point]",–
CN(C)CCCN1c2ccccc2CCc2ccc(Cl)cc21,"inconclusive: 18.4 µM [cytotoxic, single point]",–
O=C(NN(C(=O)c1ccccc1)c1cccs1)c1ccccc1,"inconclusive: 13 µM [rising, partial curve, poor fit]",–
Cc1cccc(Nc2nc(N)nc(CN3CCC(C(N)=O)CC3)n2)c1C,–,inactive: -0.17%
COc1ccccc1NC(=O)c1ccccc1C(=O)N(C)Cc1ccccc1,"inconclusive: 16.4 µM [rising, single point]",–
Cc1cccc(NC(=O)c2cc(Cl)ccc2[N+](=O)[O-])c1,–,inactive: -23%
CC(=O)N1CCN(C(C)=O)C1c1ccccc1,"inconclusive: 0.291 µM [rising, full curve, poor fit]",–
CCC(CC)c1nnc(NC(=O)Cc2ccccc2[N+](=O)[O-])s1,"inconclusive: 20.6 µM [cytotoxic, single point]",–
Cc1ccc(C(=O)Nc2ccc(-c3nc4ccccc4s3)cc2C)cc1C,–,inactive: -11%
Cc1cccc(CC(=O)Nc2ccc(C(=O)N3CCCCC3)cc2)c1,"inconclusive: 29.1 µM [cytotoxic, single point]",–
CCc1nc2ccc(C(=O)Nc3cccc(NS(C)(=O)=O)c3)cn2c1N(C)C(=O)Cc1ccccc1,–,inactive: 5.96%
Cc1cc(C(=O)Nc2cccc(S(=O)(=O)N3CCCCC3)c2)c2ccccc2n1,"inconclusive: 5.8 µM [cytotoxic, full curve]",–
O=C(c1ccccc1)c1ccc2nc(-c3ccc(NC(=O)c4ccccc4F)cc3)[nH]c2c1,–,inactive: 1.44%
COc1ccc(S(=O)(=O)N2CCC3(CC2)OCCN3S(=O)(=O)c2ccc(OC)cc2)cc1,"inconclusive: 9.2 µM [cytotoxic, partial curve]",–
CCC(=O)N1N=C(c2ccc(C)o2)CC1c1ccc(Br)cc1 (stereo not drawn),"inconclusive: 18.4 µM [cytotoxic, single point]",–
CCN(CC(=O)NCc1cccs1)C(=O)c1cccc(S(=O)(=O)N2CC(C)OC(C)C2)c1 (stereo not drawn),–,inconclusive: -30.2% [cytotoxic]
O=C(NC1CCCCC1)C(c1ccc(F)cc1)N(Cc1cccs1)C(=O)CN1C(=O)c2ccccc2S1(=O)=O (stereo not drawn),"inconclusive: 5.17 µM [cytotoxic, partial curve]",–

# 3 compounds drawn at random from those above, as already listed:
Compound,Potency,"activity change, negative = cytotoxicity"
COC(=O)c1cccc(Nc2cc(C)nc(-c3ccccc3O)n2)c1,"inconclusive: 7.31 µM [cytotoxic, partial curve]",–
CCc1nc2ccc(C(=O)Nc3cccc(NS(C)(=O)=O)c3)cn2c1N(C)C(=O)Cc1ccccc1,–,inactive: 5.96%
COc1ccccc1NC(=O)c1ccccc1C(=O)N(C)Cc1ccccc1,"inconclusive: 16.4 µM [rising, single point]",–

# Next results:

Compound,Potency,"activity change, negative = cytotoxicity"
COc1ccc2nc(NN=C(C)c3ccccn3)cc(C)c2c1,active: 1.16 µM,–
Cc1ccccc1C(=O)N1[C@@H](C(C)C)COc2cc(Br)ccc2S1(=O)=O,"inconclusive: 14.6 µM [cytotoxic, partial curve]",–
CN1C(=O)c2ccc(N3CCCC3)cc2C1=O,"inconclusive: 23.1 µM [cytotoxic, single point]",–
O=C(C1CCN(Cc2cccs2)CC1)N1CCN(Cc2ccc3c(c2)OCO3)CC1,"inconclusive: 29.1 µM [cytotoxic, single point]",–
COc1ccc(OCC(=O)OCC(=O)c2ccc(OC)c(F)c2)cc1,–,inactive: 0%
Cc1ccc(C)c(-c2cc(C(=O)NCc3cccs3)c3ccccc3n2)c1,active: 11.6 µM,–
O=C(O)CSc1cc(NS(=O)(=O)c2ccc(Br)cc2)c2ccccc2c1O,"inconclusive: 16.4 µM [cytotoxic, partial curve, poor fit]",–
COc1ccc(C2=NN(C(=O)c3ccco3)C(c3cccs3)C2)cc1OC (stereo not drawn),"inconclusive: 11.6 µM [cytotoxic, partial curve]",–
CCN1CCN(S(=O)(=O)c2ccc(Cl)c(C(=O)Nc3ccc(OC(F)F)cc3)c2)CC1,"inconclusive: 7.31 µM [cytotoxic, partial curve, poor fit]",–
CCC1(c2ccc(F)cc2)NC(=O)N(CC(=O)Nc2cc(S(=O)(=O)N(C)C)ccc2Cl)C1=O (stereo not drawn),–,inactive: 24.5%
O=C(COC(=O)c1cnccn1)Nc1ccc(Cl)cn1,"inconclusive: 18.4 µM [rising, single point]",–
CCOC(=O)c1cnc(-n2nc(C)cc2C)nc1N1CCOCC1,"inconclusive: 8.2 µM [cytotoxic, partial curve]",–
CC(OC(=O)C1CCN(S(=O)(=O)c2ccccc2C(F)(F)F)CC1)C(=O)N(C)Cc1ccccc1 (stereo not drawn),"inconclusive: 9.2 µM [cytotoxic, partial curve]",–
O=C(O)CSCc1nc2scc(-c3ccccc3)c2c(=O)[nH]1,–,inactive: -0.725%
CC(=O)c1cccc(S(=O)(=O)Nc2ccc(N3CCOCC3)cc2)c1,"inconclusive: 29.1 µM [rising, single point]",–
CCc1ccc(C(=O)Cn2ncc(Cl)c(Cl)c2=O)cc1,"inconclusive: 32.6 µM [cytotoxic, single point]",–
CC1CCN(S(=O)(=O)N2CCC(C(=O)NC(C)c3ccccc3)CC2)CC1 (stereo not drawn),"inconclusive: 20.6 µM [cytotoxic, single point]",–
O=C(CN1CCN(C/C=C/c2ccccc2)CC1)Nc1ccc(F)cc1F,"inconclusive: 20.6 µM [cytotoxic, single point]",–
Cc1csc2nc(COc3ccccc3NC(=O)c3ccc(C(C)(C)C)cc3)cc(=O)n12,–,inactive: 6.97%
O=C(Nc1ccc(Cl)c(S(=O)(=O)N2CCOCC2)c1)c1ccc2c(c1)OCCO2,"inconclusive: 16.4 µM [cytotoxic, single point]",–
Cc1nn(C)c(C)c1NS(=O)(=O)c1ccc(Cl)s1,–,inactive: 4.58%
COc1ccc2nc(NC(=O)c3cccc(-c4cc5ccccc5oc4=O)c3)sc2c1,"inconclusive: 25.9 µM [cytotoxic, partial curve, poor fit]",–
